Results are given in words; binding and its absence hold for the method and conditions named. Binding seen in cells or lysates may run through a third protein. A result given as binding can be weak or reduced; the word gives no strength. Sequences can lack the tags named with a protein.

Binding data for two molecules are collected here from publication PMC6262623.

The target in assay [1] is C-terminal fragment of Elmo1. The assay can be described thus: co-IP; 293T cells co-transfected, lysed after 2 days (50 mM Tris pH 7.6, 150 mM NaCl, 1% Triton X-100); lysates incubated with FLAG-conjugated agarose beads 2 h at 4 °C, five washes, immunoblotting. (In western blotting, separated proteins are transferred to a membrane and probed.)
In assay [2] the target is N-terminal fragment of Elmo1. The description is as above.

B1: wild-type Ephexin4 (tag not told for the experiment) (protein, UniProt Q3U5C8 1-713)
chain: MSQRHSDSSLDEKLLEYRFHAELRLDANGNPIPGLPMVRSSLKARANAAFEPDASEPLPPPPSPEDEEPPRPIVLSTQSPAALKMGTQQLIPKSLAVASKAKTKSPARHQSFGAAVLSKEAARRNPQLFSAPSFSLDDMDMDMVTTGNLRRNLRNQSYRAAMKGPGPPSSKGDSVQLGPKLQALAEEAAQPPSRYPAKNKKTLGRKRAHKGSFKDDPQLYQEIRERGLNTSHESDDDILDEPSGPVGTQRADTTIVVKSYRPAQLTWSQLPEVLESGVLDTLSTEERKRQEAIFEILTSEFSYLHSLSILVTEFLQSRELRATMTQTEHHHLFSNILDVMSASQKFFEALEQRHKAQVCVEDISDILEDHAQHHFHPYIAYCSNEVYQQRTLQKLSNSNAAFRDVLKEIEKRPACGGLPMISFLILPMQRVTRLPLLTDTLCLKTQGHPERYKAASQALKAISKLVKQCNEGAHKMERTEQIYTLNMQLDFGKVKSLPLISASRWLLKRGELFLLEESSIFRKIASRPTCYLFLFNDVLVVTKKKSEESYLVQDYAQLDHVQVRKLEPSEPLLPGGSSRSSSVPYPFQVNLLHNSEGRQEQILLSSDSASDRARWITALTYKERQWQGITNKGELPQVEVTKAYFAKQADEITLQQADIVLVLQEEDGWLHGERLRDGETGWFPESFAHSITSRVAVEGNVRRMERLRVETDV
For the molecule B1, the binding result in assay [1] and in assay [2] was “binds” in each case.

B2: Ephexin4^E295A (tag not told for the experiment) (protein, UniProt Q3U5C8 1-713)
chain: MSQRHSDSSLDEKLLEYRFHAELRLDANGNPIPGLPMVRSSLKARANAAFEPDASEPLPPPPSPEDEEPPRPIVLSTQSPAALKMGTQQLIPKSLAVASKAKTKSPARHQSFGAAVLSKEAARRNPQLFSAPSFSLDDMDMDMVTTGNLRRNLRNQSYRAAMKGPGPPSSKGDSVQLGPKLQALAEEAAQPPSRYPAKNKKTLGRKRAHKGSFKDDPQLYQEIRERGLNTSHESDDDILDEPSGPVGTQRADTTIVVKSYRPAQLTWSQLPEVLESGVLDTLSTEERKRQEAIFAILTSEFSYLHSLSILVTEFLQSRELRATMTQTEHHHLFSNILDVMSASQKFFEALEQRHKAQVCVEDISDILEDHAQHHFHPYIAYCSNEVYQQRTLQKLSNSNAAFRDVLKEIEKRPACGGLPMISFLILPMQRVTRLPLLTDTLCLKTQGHPERYKAASQALKAISKLVKQCNEGAHKMERTEQIYTLNMQLDFGKVKSLPLISASRWLLKRGELFLLEESSIFRKIASRPTCYLFLFNDVLVVTKKKSEESYLVQDYAQLDHVQVRKLEPSEPLLPGGSSRSSSVPYPFQVNLLHNSEGRQEQILLSSDSASDRARWITALTYKERQWQGITNKGELPQVEVTKAYFAKQADEITLQQADIVLVLQEEDGWLHGERLRDGETGWFPESFAHSITSRVAVEGNVRRMERLRVETDV
Regarding B2, the binding entry in assay [1] and in assay [2] was “no binding” in each case.
